For assay [1], the target named is CbpA (calprotectin-binding protein A) of Neisseria meningitidis (N. meningitidis strain H44/76) (UniProt Q7DDB6). The assay can be described thus: condition: only cells grown without IPTG (cbpA not induced); 4 µg calprotectin in 1 ml; binding to intact bacterial cells, cell-bound protein detected by Western blot; cells from 1 ml culture (OD550 1.0) incubated 1 h in 1 ml HBSS with 4 µg calprotectin, washed three times, lysates blotted with mAb 27E10; cells grown with or without 100 µM IPTG; in Figure 3D also with 1 µg/ml ZnSO4 or MnCl2 (binding enhanced); only the binder purified.

Amino acid sequences for entries named in this document (tags omitted). Residues count along the entry.
UniProt Q7DDB6, residues 26-921: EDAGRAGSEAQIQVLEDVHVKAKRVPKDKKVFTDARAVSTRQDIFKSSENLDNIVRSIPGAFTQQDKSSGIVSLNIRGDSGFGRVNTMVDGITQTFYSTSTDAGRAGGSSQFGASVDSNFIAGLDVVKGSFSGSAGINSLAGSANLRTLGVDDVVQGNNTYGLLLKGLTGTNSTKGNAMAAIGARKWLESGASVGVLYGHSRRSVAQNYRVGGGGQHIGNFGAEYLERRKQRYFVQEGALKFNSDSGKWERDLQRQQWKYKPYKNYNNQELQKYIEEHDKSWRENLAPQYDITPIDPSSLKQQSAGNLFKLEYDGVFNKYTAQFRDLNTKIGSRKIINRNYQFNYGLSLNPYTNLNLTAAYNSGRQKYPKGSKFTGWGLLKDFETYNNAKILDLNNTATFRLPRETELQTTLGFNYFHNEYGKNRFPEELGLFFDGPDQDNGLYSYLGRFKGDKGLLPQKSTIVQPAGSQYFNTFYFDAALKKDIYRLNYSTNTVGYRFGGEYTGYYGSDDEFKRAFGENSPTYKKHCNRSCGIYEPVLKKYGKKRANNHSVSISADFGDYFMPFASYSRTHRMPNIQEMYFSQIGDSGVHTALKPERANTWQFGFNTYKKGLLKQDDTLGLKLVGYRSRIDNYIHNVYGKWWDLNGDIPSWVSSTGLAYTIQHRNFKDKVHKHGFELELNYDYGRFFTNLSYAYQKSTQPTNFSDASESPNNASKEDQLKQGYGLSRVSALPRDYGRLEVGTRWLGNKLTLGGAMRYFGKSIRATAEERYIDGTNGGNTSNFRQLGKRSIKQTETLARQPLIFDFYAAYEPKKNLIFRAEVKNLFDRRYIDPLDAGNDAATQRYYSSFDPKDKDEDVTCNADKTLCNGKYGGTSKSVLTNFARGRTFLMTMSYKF

The target is the same in assay [2]. Nature of the assay: binding to intact bacterial cells, cell-bound protein detected by Western blot; cells from 1 ml culture (OD550 1.0) incubated 1 h in 1 ml HBSS with 4 µg calprotectin, washed three times, lysates blotted with mAb 27E10; cells grown with or without 100 µM IPTG; in Figure 3D also with 1 µg/ml ZnSO4 or MnCl2 (binding enhanced); only the binder purified. For orientation: In western blotting, separated proteins are transferred to a membrane and probed.

Results are given in words; binding and its absence hold for the method and conditions named. Some binding calls cover weakened binding; strength is not graded here.

B1: calprotectin (complex, UniProt P05109 1-93; P06702 1-114)
chain 1: MLTELEKALNSIIDVYHKYSLIKGNFHAVYRDDLKKLLETECPQYIRKKGADVWFKELDINTDGAVNFQEFLILVIKMGVAAHKKSHEESHKE
chain 2: MTCKMSQLERNIETIINTFHQYSVKLGHPDTLNQGEFKELVRKDLQNFLKKENKNEKVIEHIMEDLDTNADKQLSFEEFIMLMARLTWASHEKMHEGDEGPGHHHKPGLGEGTP
For the molecule B1, the binding entry in assay [1] is on record as “no binding”; in assay [2], “binds”.

The record behind these values is article PMC3814407.
